Assay results reported in the supplement of paper PMC4604168 (melanoma cell lines).
The other results are listed elsewhere or left out. Repeats are few or missing, and single values can be far off.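 Imaging used 1,536-well plates; nuclei positive for cleaved PARP by antibody were divided by total DNA-stained nuclei to yield the apoptosis fraction. Doses for screening kept most cells viable, and cell lines differ markedly in resting and induced cleaved-PARP levels.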

Columns and labels:
Assay in all cases: cleaved PARP positive nuclei fraction relative to DMSO control; melanoma cells; higher = more apoptosis
Conditions in all cases: library dose: low library concentration; 72 h
501Mel = tested on: 501Mel
A101D = tested on: A101D
A2058 = tested on: A2058
C32 = tested on: C32
CBRC008 = tested on: CBRC008 (line from a melanoma biopsy)
CBRC014 = tested on: CBRC014 (line from a melanoma biopsy)
CBRC016 = tested on: CBRC016 (line from a melanoma biopsy)
CBRC017 = tested on: CBRC017 (line from a melanoma biopsy)
COLO792 = tested on: COLO792
COLO800 = tested on: COLO800
COLO829 = tested on: COLO829
G361 = tested on: G361
IPC-298 = tested on: IPC-298
IST-MEL1 = tested on: IST-MEL1
LB2518-MEL = tested on: LB2518-MEL
LOXIMVI = tested on: LOXIMVI

Structure (SMILES)	cleaved PARP positive nuclei fraction (501Mel)	cleaved PARP positive nuclei fraction (A101D)	cleaved PARP positive nuclei fraction (A2058)	cleaved PARP positive nuclei fraction (C32)	cleaved PARP positive nuclei fraction (CBRC008)	cleaved PARP positive nuclei fraction (CBRC014)	cleaved PARP positive nuclei fraction (CBRC016)	cleaved PARP positive nuclei fraction (CBRC017)	cleaved PARP positive nuclei fraction (COLO792)	cleaved PARP positive nuclei fraction (COLO800)	cleaved PARP positive nuclei fraction (COLO829)	cleaved PARP positive nuclei fraction (G361)	cleaved PARP positive nuclei fraction (IPC-298)	cleaved PARP positive nuclei fraction (IST-MEL1)	cleaved PARP positive nuclei fraction (LB2518-MEL)	cleaved PARP positive nuclei fraction (LOXIMVI)
NC1(c2ccc(-c3nc4ccn5c(=O)[nH]nc5c4cc3-c3ccccc3)cc2)CCC1 + CCc1ccc(CCOc2ccc(CC3SC(=O)NC3=O)cc2)nc1 [pioglitazone] (first compound 0.4 µM, partner dose 2 µM)	76.2%	29.1%	108%	87.7%	146%	85%	42.1%	93.2%	191%	234%	118%	168%	80.2%	39.2%	175%	19.7%
CC1(C)CCC(c2ccc(Cl)cc2)=C(CN2CCN(c3ccc(C(=O)NS(=O)(=O)c4ccc(N[C@H](CCN5CCOCC5)CSc5ccccc5)c(S(=O)(=O)C(F)(F)F)c4)cc3)CC2)C1 + Oc1cc(-c2nc(-c3ccccc3)[nH]c2-c2ccncc2)ccc1Cl [L779450] (first compound 0.4 µM, partner dose 0.2 µM)	110%	106%	65.8%	148%	519%	544%	365%	241%	619%	94.5%	115%	248%	165%	102%	199%	542%
CC(=O)O[C@@]12CO[C@@H]1C[C@H](O)[C@@]1(C)C(=O)[C@H](O)C3=C(C)[C@@H](OC(=O)[C@H](O)[C@@H](NC(=O)OC(C)(C)C)c4ccccc4)C[C@@](O)([C@@H](OC(=O)c4ccccc4)[C@H]21)C3(C)C [Docetaxel] + CCc1ccc(CCOc2ccc(CC3SC(=O)NC3=O)cc2)nc1 [pioglitazone] (first compound 0.0001 µM, partner dose 2 µM)	105%	50.1%	2000%	916%	154%	156%	125%	277%	534%	61.4%	219%	312%	417%	241%	66.5%	105%
Cn1sc(=O)n(Cc2ccccc2)c1=O + O=S(=O)(c1ccccc1)N(CC(F)(F)F)c1ccc(C(O)(C(F)(F)F)C(F)(F)F)cc1 [T0901317] (first compound 0.4 µM, partner dose 1.4 µM)	67.3%	5.65%	150%	28.1%	152%	97.2%	15.3%	82.8%	115%	59.9%	186%	105%	49.9%	71.3%	59.5%	73.3%
Cn1sc(=O)n(Cc2ccccc2)c1=O + N#Cc1c(O)c2c(-c3ccc(-c4ccccc4O)cc3)csc2[nH]c1=O [A769662] (first compound 0.4 µM, partner dose 2 µM)	31.3%	27%	67.2%	105%	99.8%	82.7%	36.7%	97.7%	173%	89.4%	44.1%	88.4%	116%	153%	44%	136%
CN(c1ncccc1CNc1nc(Nc2ccc3c(c2)CC(=O)N3)ncc1C(F)(F)F)S(C)(=O)=O + COc1ccc(COc2ccc(Cc3cnc(N)nc3N)cc2OC)cc1 [GW2580] (first compound 0.08 µM, partner dose 1 µM)	166%	71.7%	164%	84.2%	150%	90.3%	51.5%	78.5%	101%	300%	66.1%	93%	101%	662%	60.7%	91.9%
CC(=O)O[C@@]12CO[C@@H]1C[C@H](O)[C@@]1(C)C(=O)[C@H](O)C3=C(C)[C@@H](OC(=O)[C@H](O)[C@@H](NC(=O)OC(C)(C)C)c4ccccc4)C[C@@](O)([C@@H](OC(=O)c4ccccc4)[C@H]21)C3(C)C [Docetaxel] + Oc1nc(-c2ccc(C(F)(F)F)cc2)nc2c1CSCC2 [XAV939] (first compound 0.0001 µM, partner dose 2 µM)	172%	20.9%	2710%	308%	292%	178%	133%	137%	697%	594%	185%	344%	412%	159%	118%	141%
CC1(C)CCC(c2ccc(Cl)cc2)=C(CN2CCN(c3ccc(C(=O)NS(=O)(=O)c4ccc(N[C@H](CCN5CCOCC5)CSc5ccccc5)c(S(=O)(=O)C(F)(F)F)c4)cc3)CC2)C1 + Oc1nc(-c2ccc(C(F)(F)F)cc2)nc2c1CSCC2 [XAV939] (first compound 0.4 µM, partner dose 2 µM)	29.6%	32.2%	90.3%	161%	389%	581%	230%	443%	591%	103%	87.5%	252%	145%	119%	92.5%	89.2%
